Results published in publication PMC11733299.
These are yes or no findings as the source states them, for the method shown. Binding seen in cells or lysates may run through a third protein. Some entries that bind do so weakly or less than the wild type. Tags and fused reporters may be left off the sequences shown.

B1: CNGC6-N-Venus-Flag (domain or fragment, UniProt O82226 1-116)
chain: MFDTCGPKGVKSQVISGQRENFVRLDSMDSRYSQSSETGLNKCTLNIQGGPKRFAQGSKASSGSFKKGFRKGSEGLWSIGRSIGLGVSRAVFPEDLEVSEKKIFDPQDKFLLLCNK
B2: CNGC9-N-Venus-Flag (domain or fragment, UniProt Q9M0A4 1-117)
chain: MLDCGKKAVKSQVISGRLEKFVRLDSMDSRYSQTSDTGLNRCTLNLQGPTRGGGAQGNNVSSGSFKKGFRKGSKGLWSIGRSIGLGVSRAVFPEDLKVSEKKIFDPQDKFLLLCNKL
B3: CPK1-YFP^C (enzyme, UniProt Q06850 1-610)
chain: MGNTCVGPSRNGFLQSVSAAMWRPRDGDDSASMSNGDIASEAVSGELRSRLSDEVQNKPPEQVTMPKPGTDVETKDREIRTESKPETLEEISLESKPETKQETKSETKPESKPDPPAKPKKPKHMKRVSSAGLRTESVLQRKTENFKEFYSLGRKLGQGQFGTTFLCVEKTTGKEFACKSIAKRKLLTDEDVEDVRREIQIMHHLAGHPNVISIKGAYEDVVAVHLVMECCAGGELFDRIIQRGHYTERKAAELTRTIVGVVEACHSLGVMHRDLKPENFLFVSKHEDSLLKTIDFGLSMFFKPDDVFTDVVGSPYYVAPEVLRKRYGPEADVWSAGVIVYILLSGVPPFWAETEQGIFEQVLHGDLDFSSDPWPSISESAKDLVRKMLVRDPKKRLTAHQVLCHPWVQVDGVAPDKPLDSAVLSRMKQFSAMNKFKKMALRVIAESLSEEEIAGLKEMFNMIDADKSGQITFEELKAGLKRVGANLKESEILDLMQAADVDNSGTIDYKEFIAATLHLNKIEREDHLFAAFTYFDKDGSGYITPDELQQACEEFGVEDVRIEELMRDVDQDNDGRIDYNEFVAMMQKGSITGGPVKMGLEKSFSIALKL

What was measured:
[1] = target: T1, CPK1-Myc (Arabidopsis thaliana) (UniProt Q06850); test: co-IP; co-expression in N. benthamiana leaves; extract in 150 mM NaCl, 1 mM EDTA, 0.05% NP40, 20 mM Tris-HCl pH 7.5; anti-Myc agarose 6 h at 4 °C; blots with anti-Myc and anti-Flag
T1 sequence: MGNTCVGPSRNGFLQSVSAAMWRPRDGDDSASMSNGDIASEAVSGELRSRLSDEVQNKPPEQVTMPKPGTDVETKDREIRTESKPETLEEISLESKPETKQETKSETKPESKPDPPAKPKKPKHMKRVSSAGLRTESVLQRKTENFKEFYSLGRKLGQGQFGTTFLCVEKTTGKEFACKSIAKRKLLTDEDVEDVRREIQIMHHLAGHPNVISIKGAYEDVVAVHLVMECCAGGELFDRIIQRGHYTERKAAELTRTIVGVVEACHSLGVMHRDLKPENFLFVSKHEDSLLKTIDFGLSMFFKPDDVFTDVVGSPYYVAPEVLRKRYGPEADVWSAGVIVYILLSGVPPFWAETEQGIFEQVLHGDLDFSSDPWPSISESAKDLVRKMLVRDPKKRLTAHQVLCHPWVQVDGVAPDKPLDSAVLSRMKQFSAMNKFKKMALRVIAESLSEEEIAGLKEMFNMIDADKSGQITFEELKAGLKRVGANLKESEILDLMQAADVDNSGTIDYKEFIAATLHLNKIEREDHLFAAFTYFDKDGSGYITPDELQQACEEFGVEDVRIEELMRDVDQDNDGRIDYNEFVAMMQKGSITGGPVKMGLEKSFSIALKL

[2] = target: T2, CNGC5-YFP^N (Arabidopsis thaliana) (UniProt Q8RWS9); test: split reporter; BiFC with split YFP in Xenopus laevis oocytes; cRNA 25 ng per vector micro-injected; 2-3 days at 16 °C in ND96; confocal microscopy
T2 sequence: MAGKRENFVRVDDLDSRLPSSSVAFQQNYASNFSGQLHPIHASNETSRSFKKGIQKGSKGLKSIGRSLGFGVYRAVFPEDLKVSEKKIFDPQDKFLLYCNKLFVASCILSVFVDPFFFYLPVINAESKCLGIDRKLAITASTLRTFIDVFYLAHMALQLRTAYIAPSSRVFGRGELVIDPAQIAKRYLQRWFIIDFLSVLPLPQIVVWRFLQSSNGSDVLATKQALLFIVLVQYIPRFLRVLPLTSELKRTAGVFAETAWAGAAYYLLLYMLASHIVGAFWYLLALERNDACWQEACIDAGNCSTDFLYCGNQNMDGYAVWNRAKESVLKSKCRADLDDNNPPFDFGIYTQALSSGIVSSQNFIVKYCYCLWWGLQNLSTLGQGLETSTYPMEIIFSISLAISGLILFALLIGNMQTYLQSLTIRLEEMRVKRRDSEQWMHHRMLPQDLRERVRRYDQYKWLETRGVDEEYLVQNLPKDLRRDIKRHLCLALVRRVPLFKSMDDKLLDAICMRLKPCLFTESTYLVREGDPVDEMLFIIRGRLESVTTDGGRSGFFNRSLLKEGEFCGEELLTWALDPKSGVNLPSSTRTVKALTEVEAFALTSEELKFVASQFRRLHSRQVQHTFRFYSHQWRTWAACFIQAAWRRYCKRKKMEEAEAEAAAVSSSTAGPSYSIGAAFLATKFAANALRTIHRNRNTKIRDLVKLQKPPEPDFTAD

[3] = target: T3, CNGC6-YFP^N (Arabidopsis thaliana) (UniProt O82226); test: as above
T3 sequence: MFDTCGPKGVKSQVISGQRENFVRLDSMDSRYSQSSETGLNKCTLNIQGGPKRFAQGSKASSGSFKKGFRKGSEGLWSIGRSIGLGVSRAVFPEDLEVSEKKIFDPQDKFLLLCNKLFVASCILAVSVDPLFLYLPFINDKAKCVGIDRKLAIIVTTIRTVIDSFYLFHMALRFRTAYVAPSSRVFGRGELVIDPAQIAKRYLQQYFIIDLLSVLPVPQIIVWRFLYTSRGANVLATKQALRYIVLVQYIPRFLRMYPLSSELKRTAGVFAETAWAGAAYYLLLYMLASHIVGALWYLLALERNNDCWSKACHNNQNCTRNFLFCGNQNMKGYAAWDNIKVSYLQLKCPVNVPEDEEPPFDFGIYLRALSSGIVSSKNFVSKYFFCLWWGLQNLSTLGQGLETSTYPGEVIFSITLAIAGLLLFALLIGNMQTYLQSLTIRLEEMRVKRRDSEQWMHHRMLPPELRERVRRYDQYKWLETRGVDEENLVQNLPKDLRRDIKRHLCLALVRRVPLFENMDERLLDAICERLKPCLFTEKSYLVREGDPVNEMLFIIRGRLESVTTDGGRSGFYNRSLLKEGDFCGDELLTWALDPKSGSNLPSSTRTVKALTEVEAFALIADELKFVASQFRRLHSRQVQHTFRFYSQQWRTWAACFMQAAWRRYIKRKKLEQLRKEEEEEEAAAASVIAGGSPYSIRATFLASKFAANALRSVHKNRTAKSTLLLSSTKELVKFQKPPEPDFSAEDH

[4] = target: T4, CNGC9-YFP^N (Arabidopsis thaliana) (UniProt Q9M0A4); test: as above
T4 sequence: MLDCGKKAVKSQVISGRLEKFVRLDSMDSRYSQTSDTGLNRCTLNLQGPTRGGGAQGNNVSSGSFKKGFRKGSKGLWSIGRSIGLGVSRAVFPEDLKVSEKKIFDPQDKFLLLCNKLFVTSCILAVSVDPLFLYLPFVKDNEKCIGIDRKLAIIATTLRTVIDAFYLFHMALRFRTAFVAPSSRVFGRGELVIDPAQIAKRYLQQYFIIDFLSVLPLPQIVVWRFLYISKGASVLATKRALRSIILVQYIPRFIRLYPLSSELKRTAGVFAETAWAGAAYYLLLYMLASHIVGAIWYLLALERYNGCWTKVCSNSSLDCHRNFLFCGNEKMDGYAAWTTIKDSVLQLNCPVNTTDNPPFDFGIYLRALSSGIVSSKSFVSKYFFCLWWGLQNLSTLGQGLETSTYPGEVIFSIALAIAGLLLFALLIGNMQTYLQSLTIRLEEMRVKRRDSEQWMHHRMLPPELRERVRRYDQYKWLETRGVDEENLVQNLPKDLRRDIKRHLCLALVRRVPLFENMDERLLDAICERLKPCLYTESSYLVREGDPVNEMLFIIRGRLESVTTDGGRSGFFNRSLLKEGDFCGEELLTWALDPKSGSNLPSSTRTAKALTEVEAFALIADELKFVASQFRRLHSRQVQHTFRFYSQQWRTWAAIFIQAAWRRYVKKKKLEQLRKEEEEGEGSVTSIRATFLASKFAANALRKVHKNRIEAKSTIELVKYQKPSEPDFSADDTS

Binder	binding [1]	binding [2]	binding [3]	binding [4]
B1	binds	–	–	–
B2	binds	–	–	–
B3	–	binds	binds	binds
